Results reported in PubChem BioAssay AID256 (DTP/NCI, 2004).
The list is a part of this screen's results and no random one: it gathers some chemical classes. Not every dose and run of a compound is shown. T/C gives the treated animals as a percentage of the vehicle group. Some entries give survivors of the animals treated and no T/C: the source holds a T/C of zero for them, seemingly a mark for toxic or unscored doses. Survivors were counted at the toxicity check, usually on the fifth day, unless a day is given; later deaths do not show. Schedules are NCI's codes, taken here to give the interval after Q, in days (D) or hours (H), and the number of doses after X. Where survival is the endpoint, this PubChem deposit counts one and a half times the control or more as active, and values a quarter to a half above the control carry no call in these data; other NCI protocols may use other cut-offs. Some entries show no survivor count and are marked so; the dose need not have been tolerated. Some entries were tested several times; the results are listed from low to high. Some schedule codes hold Z or #, which are not explained here.

Tested on: CD2F1 mice, L1210 leukemia ip, survival T/C
Test: NCI In Vivo Anticancer Drug Screen. Data for tumor model L1210 Leukemia (intraperitoneal) in CD2F1 (CDF1) mice
Details: higher T/C = longer survival
Procedure, shortened: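 Antitumor effect is scored in animals hosting a serially transplanted tumor. Values compare compound-dosed animals against vehicle-only controls as a simple quotient.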

[1] = T/C endpoint: mean survival time, dose: 12.5 mg/kg/injection, schedule: Q01DX009 (ip), vehicle: Klucel (hydroxypropylcellulose) (HPC)
[2] = T/C endpoint: mean survival time, dose: 25.0 mg/kg/injection, schedule: Q01DX009 (ip), vehicle: Klucel (hydroxypropylcellulose) (HPC)
[3] = T/C endpoint: mean survival time, dose: 50.0 mg/kg/injection, schedule: Q01DX009 (ip), vehicle: Klucel (hydroxypropylcellulose) (HPC)
[4] = T/C endpoint: mean survival time, dose: 100.0 mg/kg/injection, schedule: Q01DX009 (ip), vehicle: Klucel (hydroxypropylcellulose) (HPC)
[5] = T/C endpoint: mean survival time, dose: 200.0 mg/kg/injection, schedule: Q01DX009 (ip), vehicle: Klucel (hydroxypropylcellulose) (HPC)

SMILES: CCN(CC)Cc1cccc(N(CCCl)CCCl)c1
- T/C [1]: 103 [survivor count not shown] and 108 % of control [survivor count not shown]
- T/C (T/C endpoint: mean survival time, dose: 25.0 mg/kg/injection, schedule: Q01DX001 (ip), vehicle: Klucel (hydroxypropylcellulose) (HPC)): 95 % of control [survivor count not shown]
- T/C [2]: 97 [survivor count not shown], 110 [survivor count not shown], 112 % of control [survivor count not shown]
- T/C (T/C endpoint: mean survival time, dose: 25.0 mg/kg/injection, schedule: Q04DX002 (ip), vehicle: Klucel (hydroxypropylcellulose) (HPC)): 95 % of control [survivor count not shown]
- T/C (T/C endpoint: mean survival time, dose: 25.0 mg/kg/injection, schedule: Q04DX003 (ip), vehicle: Klucel (hydroxypropylcellulose) (HPC)): 103 % of control [survivor count not shown]
- T/C (T/C endpoint: mean survival time, dose: 50.0 mg/kg/injection, schedule: Q01DX001 (ip), vehicle: Klucel (hydroxypropylcellulose) (HPC)): 103 % of control [survivor count not shown]
- T/C [3]: 103 [survivor count not shown], 106 [survivor count not shown], 110 [survivor count not shown], 142 % of control [survivor count not shown]
- T/C (T/C endpoint: mean survival time, dose: 50.0 mg/kg/injection, schedule: Q04DX002 (ip), vehicle: Klucel (hydroxypropylcellulose) (HPC)): 94 % of control [survivor count not shown]
- T/C (T/C endpoint: mean survival time, dose: 50.0 mg/kg/injection, schedule: Q04DX003 (ip), vehicle: Klucel (hydroxypropylcellulose) (HPC)): 97 % of control [survivor count not shown]
- T/C (T/C endpoint: mean survival time, dose: 100.0 mg/kg/injection, schedule: Q01DX001 (ip), vehicle: Klucel (hydroxypropylcellulose) (HPC)): 100 % of control [survivor count not shown]
- T/C [4]: 118 [survivor count not shown], 124 [survivor count not shown], 130 [survivor count not shown], 132 % of control [survivor count not shown]
- T/C (T/C endpoint: mean survival time, dose: 100.0 mg/kg/injection, schedule: Q04DX002 (ip), vehicle: Klucel (hydroxypropylcellulose) (HPC)): 103 % of control [survivor count not shown]
- T/C (T/C endpoint: mean survival time, dose: 100.0 mg/kg/injection, schedule: Q04DX003 (ip), vehicle: Klucel (hydroxypropylcellulose) (HPC)): 109 % of control [survivor count not shown]
- T/C (T/C endpoint: mean survival time, dose: 200.0 mg/kg/injection, schedule: Q01DX001 (ip), vehicle: Klucel (hydroxypropylcellulose) (HPC)): 103 % of control [survivor count not shown]
- T/C (T/C endpoint: mean survival time, dose: 200.0 mg/kg/injection, schedule: Q04DX002 (ip), vehicle: Klucel (hydroxypropylcellulose) (HPC)): 111 % of control [survivor count not shown]
- T/C (T/C endpoint: mean survival time, dose: 200.0 mg/kg/injection, schedule: Q04DX003 (ip), vehicle: Klucel (hydroxypropylcellulose) (HPC)): 111 % of control [survivor count not shown]

SMILES: CCNP(=O)(OCCC(C)=O)N(CCCl)CCCl (stereo not given)
- T/C (T/C endpoint: mean survival time, dose: 14.7 mg/kg/injection, schedule: Q01DX001 (ip), vehicle: DMSO): 102 % of control [survivor count not shown]
- T/C (T/C endpoint: mean survival time, dose: 22.0 mg/kg/injection, schedule: Q01DX001 (ip), vehicle: DMSO): 105 % of control [survivor count not shown]
- T/C (T/C endpoint: mean survival time, dose: 33.0 mg/kg/injection, schedule: Q01DX001 (ip), vehicle: DMSO): 108 % of control [survivor count not shown]
- T/C (T/C endpoint: mean survival time, dose: 50.0 mg/kg/injection, schedule: Q01DX001 (ip), vehicle: DMSO): 111 [survivor count not shown] and 135 % of control [survivor count not shown]
- T/C (T/C endpoint: mean survival time, dose: 75.0 mg/kg/injection, schedule: Q01DX001 (ip), vehicle: DMSO): 141 % of control [survivor count not shown]
- T/C (T/C endpoint: mean survival time, dose: 113.0 mg/kg/injection, schedule: Q01DX001 (ip), vehicle: DMSO): 155 % of control [survivor count not shown]

SMILES: S=P(Cl)(Cl)Cl
- T/C (T/C endpoint: mean survival time, dose: 25.0 mg/kg/injection, schedule: Q01DX009 (ip), vehicle: saline with Tween-80): 95 % of control [survivor count not shown]
- T/C (T/C endpoint: mean survival time, dose: 50.0 mg/kg/injection, schedule: Q01DX009 (ip), vehicle: saline with Tween-80): 98 % of control [survivor count not shown]
- T/C (T/C endpoint: mean survival time, dose: 100.0 mg/kg/injection, schedule: Q04DX003 (ip), vehicle: saline with Tween-80): 102 % of control [survivor count not shown]

SMILES: NC1CCCCC1.NNP(=O)(O)N(CCCl)CCCl
- T/C (T/C endpoint: mean survival time, dose: 25.0 mg/kg/injection, schedule: Q01DX001 (ip), vehicle: water): 97 % of control [survivor count not shown]
- T/C (T/C endpoint: mean survival time, dose: 50.0 mg/kg/injection, schedule: Q01DX001 (ip), vehicle: water): 101 % of control [survivor count not shown]
- T/C (T/C endpoint: mean survival time, dose: 100.0 mg/kg/injection, schedule: Q01DX001 (ip), vehicle: water): 105 % of control [survivor count not shown]
- T/C (T/C endpoint: mean survival time, dose: 200.0 mg/kg/injection, schedule: Q01DX001 (ip), vehicle: water): 117 % of control [survivor count not shown]
- T/C (T/C endpoint: mean survival time, dose: 400.0 mg/kg/injection, schedule: Q01DX001 (ip), vehicle: water): 128 % of control [survivor count not shown]

SMILES: ClCCNCCCl
- T/C (T/C endpoint: mean survival time, dose: 25.0 mg/kg/injection, schedule: Q01DX007 (ip), vehicle: saline): 112 % of control [survivor count not shown]
- T/C (T/C endpoint: mean survival time, dose: 25.0 mg/kg/injection, schedule: Q01DX009 (ip), vehicle: saline): 114 % of control [survivor count not shown]
- T/C (T/C endpoint: mean survival time, dose: 25.0 mg/kg/injection, schedule: Q03DX003 (ip), vehicle: saline): 104 % of control [survivor count not shown]
- T/C (T/C endpoint: mean survival time, dose: 25.0 mg/kg/injection, schedule: Q04DX003 (ip), vehicle: saline): 100 % of control [survivor count not shown]
- T/C (T/C endpoint: mean survival time, dose: 50.0 mg/kg/injection, schedule: Q01DX007 (ip), vehicle: saline): 136 % of control [survivor count not shown]
- T/C (T/C endpoint: mean survival time, dose: 50.0 mg/kg/injection, schedule: Q01DX009 (ip), vehicle: saline): 128 % of control [survivor count not shown]
- T/C (T/C endpoint: mean survival time, dose: 50.0 mg/kg/injection, schedule: Q03DX003 (ip), vehicle: saline): 113 % of control [survivor count not shown]
- T/C (T/C endpoint: mean survival time, dose: 50.0 mg/kg/injection, schedule: Q04DX003 (ip), vehicle: saline): 112 % of control [survivor count not shown]
- T/C (T/C endpoint: mean survival time, dose: 100.0 mg/kg/injection, schedule: Q01DX007 (ip), vehicle: saline): 134 % of control [survivor count not shown]
- T/C (T/C endpoint: mean survival time, dose: 100.0 mg/kg/injection, schedule: Q01DX009 (ip), vehicle: saline): 112 % of control [survivor count not shown]
- T/C (T/C endpoint: mean survival time, dose: 100.0 mg/kg/injection, schedule: Q03DX003 (ip), vehicle: saline): 146 % of control [survivor count not shown]
- T/C (T/C endpoint: mean survival time, dose: 100.0 mg/kg/injection, schedule: Q04DX003 (ip), vehicle: saline): 177 % of control [survivor count not shown]
- T/C (T/C endpoint: median survival time, dose: 18.8 mg/kg/injection, schedule: Q01DX009 (ip), vehicle: saline): 111 [survivor count not shown] and 135 % of control [survivor count not shown]
- T/C (T/C endpoint: median survival time, dose: 37.5 mg/kg/injection, schedule: Q01DX009 (ip), vehicle: saline): 111 [survivor count not shown] and 164 % of control [survivor count not shown]
- T/C (T/C endpoint: median survival time, dose: 75.0 mg/kg/injection, schedule: Q01DX009 (ip), vehicle: saline): 128 % of control [survivor count not shown]

SMILES: CCOc1ccc(N(CCCl)CCCl)cc1
- T/C (T/C endpoint: mean survival time, dose: 6.25 mg/kg/injection, schedule: Q01DX009 (ip), vehicle: Klucel (hydroxypropylcellulose) (HPC)): 101 % of control
- T/C [1]: 110 % of control
- T/C [2]: 115 % of control
- T/C [3]: 113 % of control
- T/C [4]: 100 % of control
- survivor count [5]: 1 of 8

SMILES: N#CC(C#N)=Cc1ccc(N(CCCl)CCCl)cc1
- T/C [1]: 97 % of control [survivor count not shown]
- T/C [2]: 93 % of control [survivor count not shown]
- T/C [3]: 91 % of control [survivor count not shown]
- T/C [4]: 95 % of control [survivor count not shown]
- T/C [5]: 97 % of control [survivor count not shown]
- T/C (T/C endpoint: mean survival time, dose: 400.0 mg/kg/injection, schedule: Q01DX009 (ip), vehicle: Klucel (hydroxypropylcellulose) (HPC)): 95 % of control [survivor count not shown]

SMILES: O=P(Cl)(Cl)N(CCF)CCCl
- T/C (T/C endpoint: mean survival time, dose: 1.0 mg/kg/injection, schedule: Q01DX Z (ip), vehicle: saline): 94 % of control [survivor count not shown]
- T/C (T/C endpoint: mean survival time, dose: 3.0 mg/kg/injection, schedule: Q01DX Z (ip), vehicle: saline): 97 % of control [survivor count not shown]
- T/C (T/C endpoint: mean survival time, dose: 10.0 mg/kg/injection, schedule: Q01DX Z (ip), vehicle: saline): 123 % of control [survivor count not shown]
